At least one structure is not confirmed: it was looked up by name or label, or the drawing left a doubt.
Tests used:
[1] = Shrinkage temperature by differential scanning calorimetric analysis; type: physicochemical, bovine
[2] = tested on: glutaraldehyde-fixed bovine pericardium tissue; assay: Calcium and phosphorus content after subcutaneous implantation in rats (Examples 2 and 3); type: in vivo, Sprague-Dawley rats; settings: all tissue types, most pronounced with bovine pericardium
Method: In a sterile hood, pieces of glutaraldehyde-fixed bovine pericardium tissue (Mitroflow Inc.; Richmond, British Columbia, Canada) porcine cusp tissue (Labcor; Belo Horizonte, Brazil) and porcine wall tissue (Labcor Inc.) were transferred into sterile tubes containing 1,2-octanediol solutions (5% […] (Aldrich Chemical), 40% ethanol and 55% 10 mM HEPES buffer). The tubes were transferred to a 37° C. incubator and maintained at 37° C. with gentle agitation for about 16 hours. After the treatment, the samples were transferred to solutions comprising 22% ethanol in 10 mM HEPES and stored for 14 days at 4° C. The final tissue to volume ratio for all treatments was approximately 27 ml/g. […]
Samples treated with the 1,2-octanediol solutions and with NMP, as well as untreated samples of each tissue type, were provided to Charles Rivers Laboratories (Wilmington, Mass.) for implantation into rats. Seven rats per treatment group were analyzed. […] After retrieval, the samples were analyzed for their calcium and phosphorus contents using a standard ICP methodology. […]
Samples treated with the 45% ethanol solution, as well as untreated samples of each tissue type, were provided to Charles Rivers Laboratories (Wilmington, Mass.) for implantation into rats. Seven rats per treatment group were analyzed. […] After retrieval, the samples were analyzed for their calcium and phosphorus contents by ICP.

## CCCCCCC(O)CO (stereo not drawn) [1,2-octanediol]
[1]
  effect on shrinkage temperature compared with untreated tissue: no significant effect
[1]; glutaraldehyde 0.25% about 7 days, then post-fixation treatment
  Shrink Temperature: 86.0 °C
[2]
  calcium and phosphorus levels of explanted tissues: significantly reduced
